Assay results reported in US20100297194A1, “FORMULATION FOR ORAL ADMINISTRATION OF APOPTOSIS PROMOTER” (priority 2009, published 2010).
Where a name gives a salt, the structure may show the parent alone. This continues a long series; more values of the same kind are listed elsewhere.

How the values were obtained:
[1] = drug solubility in ternary excipient systems (Example 2); assay type: physicochemical; design: key: ✓: vehicle miscible, or drug fully dissolved in vehicle; X: vehicle immiscible or miscible but turbid, or residual solids present (due to undissolved drug or precipitation); details: 10% salt, 20% free base
Text: (§1) Solvents evaluated included Labrafil M 1944 CS™, Imwitor 742™ oleic acid, Capmul PG-8™, Capmul PG-12™, Lauroglycol 90™ and Phosal 53 MCT™. Surfactants evaluated included Tween™ 80, Cremophor RH40™, Gelucire 44/14™ and Labrasol™.

[2] = as above; assay type: physicochemical; design: key: ✓: vehicle miscible, or drug fully dissolved in vehicle; details: 10% salt, 20% free base
Text: as §1

| Compound | ABT-263 solubility ([1]; ILC (Imwitor 742/Labrafil M 1944 CS/Cremophor RH40) 40:40:20 by weight, listed as ABT-263 free base) | ABT-263 solubility ([1]; ILC (Imwitor 742/Labrafil M 1944 CS/Cremophor RH40) 50:30:20 by weight, listed as ABT-263 free base) | ABT-263 solubility ([1]; LIT (Labrafil M 1944 CS/Imwitor 742/Tween 80) 30:45:25 by weight, listed as ABT-263 free base) | ABT-263 solubility ([1]; LIT (Labrafil M 1944 CS/Imwitor 742/Tween 80) 40:35:25 by weight, listed as ABT-263 free base) | ABT-263 solubility ([1]; C8LC (Capmul PG-8/Labrafil M 1944 CS/Cremophor RH40) 40:40:20 by weight) | ABT-263 solubility ([1]; C8LC (Capmul PG-8/Labrafil M 1944 CS/Cremophor RH40) 50:30:20 by weight) | ABT-263 solubility ([1]; C8LC (Capmul PG-8/Labrafil M 1944 CS/Cremophor RH40) 50:40:10 by weight) | ABT-263 solubility ([1]; C8LC (Capmul PG-8/Labrafil M 1944 CS/Cremophor RH40) 60:30:10 by weight) | ABT-263 solubility ([2]; ILC (Imwitor 742/Labrafil M 1944 CS/Cremophor RH40) 40:40:20 by weight, listed as ABT-263 bis-HCl salt) | ABT-263 solubility ([2]; LIT (Labrafil M 1944 CS/Imwitor 742/Tween 80) 30:45:25 by weight, listed as ABT-263 bis-HCl salt) | ABT-263 solubility ([2]; LIT (Labrafil M 1944 CS/Imwitor 742/Tween 80) 40:35:25 by weight, listed as ABT-263 bis-HCl salt) | ABT-263 solubility ([2]; LLC (Lauroglycol 90/Labrafil M 1944 CS/Cremophor RH40) 45:30:25 by weight) | ABT-263 solubility ([2]; LOC (Labrafil M 1944 CS/oleic acid/Cremophor RH40) 30:60:10 by weight) | ABT-263 solubility ([2]; LOC (Labrafil M 1944 CS/oleic acid/Cremophor RH40) 40:50:10 by weight) |
| --- | --- | --- | --- | --- | --- | --- | --- | --- | --- | --- | --- | --- | --- | --- |
| CC1(C)CCC(c2ccc(Cl)cc2)=C(CN2CCN(c3ccc(C(=O)NS(=O)(=O)c4ccc(N[C@H](CCN5CCOCC5)CSc5ccccc5)c(S(=O)(=O)C(F)(F)F)c4)cc3)CC2)C1 [ABT-263, N-(4-(4-((2-(4-chlorophenyl)-5,5-dimethyl-1-cyclohex-1-en-1-yl)methyl)piperazin-1-yl)benzoyl)-4-(((1R)-3-(morpholin-4-yl)-1-((phenylsulfanyl)methyl)propyl)amino)-3-((trffluoromethyl)sulfonyl)benzene-sulfonamide] | X | X | X | X |  |  |  |  |  |  |  |  |  |  |
| CC1(C)CCC(c2ccc(Cl)cc2)=C(CN2CCN(c3ccc(C(=O)NS(=O)(=O)c4ccc(N[C@H](CCN5CCOCC5)CSc5ccccc5)c(S(=O)(=O)C(F)(F)F)c4)cc3)CC2)C1 [ABT-263 bis-HCl] |  |  |  |  | X | X | X | X | ✓ | ✓ | ✓ | ✓ | ✓ | ✓ |
